According to US20080188421A1, “Hunter-Killer Peptides and Methods of Use” (priority 2004, published 2008):
Some of these results come from one statement about several compounds together.

System: Kaposi's sarcoma cells
Test: Viability of KS cells (Live/Dead assay)
Type: cell-based
Settings: KS cells treated with peptides at 12 ug/mL in DMEM without serum
Protocol: KS cells were plated in DMEM with 10% FBS in 96-well plates. Media was replaced with 100 uL of DMEM without serum and cells were treated with peptides at 12 ug/mL: The peptides utilized had two distinct disulfide links and are shown below. The other peptides utilized in the studies and methods for tumor studies are essentially as reported in Nature Medicine 5(9): 1032-1038, 1999, which is incorporated herein by reference in its entirety. Crude peptide was unpurified peptide composed monomer and dimer and other species-oxidized forms of the peptide.

## CNGRC-GG-d(KLAKLAK)2 (D-amino acids; branched dimer) [corresponding monomeric homing conjugate]
  cell death: less than 10%
